At least one structure is not confirmed: it was looked up by name or label, or the drawing left a doubt.
Tested on: E. coli persisters
Assay: E. coli persister assay (survival by c.f.u. per ml)
Type: cell-based, Escherichia coli (K12 EMG2)
Conditions: gentamicin plus metabolite, 2 h
Experimental: For E. coli (K12 EMG2 strain) persister assays, as described herein, samples were grown to stationary phase in Luria-bertani (LB) broth. Cultures were then treated for 4 hours with 5 μg/mL ofloxacin. […] Samples were then washed with 10 mL 1× filtered PBS and re-suspended in M9 minimal media. Metabolites (Glucose, mannitol, fructose, and pyruvate) and aminoglycoside antibiotics (10 μg/mL gentamicin, 50 μg/mL streptomycin, and 30 μg/mL kanamycin) were added, and samples were incubated at 37° C., 300 RPM, and 80% humidity. Resuspension of samples in defined minimal media allowed precise and specific testing of the effect of different metabolites on persister viability, without the possible confounding factors that a more complex media would present. For S. aureus persister (ATCC 25923 strain) experiments, cells were grown at 37° C. and 300 RPM in LB broth to an OD600 of 0.3. Cells were then diluted 1:1000 in 25 mL LB and grown for 16 hours at 37° C. and 300 RPM in 250 mL flasks. Cultures were treated with carbon source and antibiotic. […]
At specified time points, 10 μL aliquots of samples were removed, serially diluted, and spot-plated onto LB agar plates to determine colony forming units/mL (CFU/mL). Only dilutions that yielded between 10-100 colonies were counted. Survival was determined by dividing a replicate's CFU/mL at each time point by the initial CFU/mL for the replicate. […]

With `CC(=O)C(=O)O` [pyruvate] the “potentiation of gentamicin against ΔndhΔnuoI strain persisters” value was “not potentiated”.

From US10660911B2, “Proton-motive force stimulation to potentiate aminoglycoside antibiotics against persistent bacteria” (TRUSTEES OF BOSTON UNIVERSITY, priority 2011, dated 2020)
